From article PMC6872557
These are yes or no findings as the source states them, for the method shown. Binding seen in cells or lysates may run through a third protein. Some results given as binding are weak or reduced against the parent protein; the word gives no strength.

Key:
[1] = biological target: Flag-RUNX1 (Runt-Related Transcription Factor 1) (UniProt Q01196); experiment: co-IP; Fig. 2b-e: U251 cells overexpressing Flag-RUNX1, Flag-SMAD3 or Flag-SUV39H1 with TGFβ protein for 4 h or 8 h; N9 cells overexpressing the same with LY2109761 for 24 h or 48 h; Western and IP lysis buffer, antibody and protein-A/G PLUS agarose at 4 °C overnight, three washes with RIPA, western blot
[2] = biological target: RUNX1 (Runt-related transcription factor 1) (human (endogenous in U251, N9)) (UniProt Q01196); experiment: co-IP; Fig. S9a: co-IP of RUNX1 with five partners taken from a STRING network, 'in vivo'; cells, bait and antibodies not shown; general method: Western and IP lysis buffer, antibody and protein-A/G PLUS agarose at 4 °C overnight, three washes with RIPA, western blot

B1: SUV39H1 (protein, UniProt O43463 1-412)
chain: MAENLKGCSVCCKSSWNQLQDLCRLAKLSCPALGISKRNLYDFEVEYLCDYKKIREQEYYLVKWRGYPDSESTWEPRQNLKCVRILKQFHKDLERELLRRHHRSKTPRHLDPSLANYLVQKAKQRRALRRWEQELNAKRSHLGRITVENEVDLDGPPRAFVYINEYRVGEGITLNQVAVGCECQDCLWAPTGGCCPGASLHKFAYNDQGQVRLRAGLPIYECNSRCRCGYDCPNRVVQKGIRYDLCIFRTDDGRGWGVRTLEKIRKNSFVMEYVGEIITSEEAERRGQIYDRQGATYLFDLDYVEDVYTVDAAYYGNISHFVNHSCDPNLQVYNVFIDNLDERLPRIAFFATRTIRAGEELTFDYNMQVDPVDMESTRMDSNFGLAGLPGSPKKRVRIECKCGTESCRKYLF
[1]
  binding: binds
[2]
  binding: binds
